# Laboratory results published in PubChem BioAssay AID504834 (National Center for Advancing Translational Sciences (NCATS), 2011).
# Among all 320,000 compounds or so, about 22,000 (6.9%) were called active. The inconclusive results got no clear call from the source; some entries with a clear call stand among them for comparison. The call rests on the fitted dose curve; in most records, active means well fitted inhibition curve with a large enough effect; inconclusive means small, poorly fitted or top-dose-only effect, or another doubt; inactive means no such curve, though single readings can be large or run the other way. Potencies of inconclusive entries are doubtful fits and often do not repeat.
# Assay: Primary qHTS for delayed death inhibitors of the malarial parasite plastid, 96 hour incubation
# Conditions: P. falciparum luciferase reporter growth; series mostly up to 28.7 µM; activity change, negative = inhibition: at the top concentration
# Outline: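 Readout is luminescence from an integrated firefly luciferase in P. falciparum. Red cells, 2% hematocrit and 0.05% parasitemia final, were cultured with compound through two parasite generations (96 hours) at 37 C, 5% CO2.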
# On the % scale 0 is the no-effect control and ±100 the full control effect; potency means the concentration at half of the fitted maximal effect.
SMILES,"activity change, negative = inhibition",Potency
CCN(CC(=O)Nc1ccc(NC(C)=O)cc1)CC(=O)Nc1cccc(Cl)c1,inactive: -0.506%,–
Cc1cc(/C=C2/C(=O)N(C)C(=S)N2C)c(C)n1C1CC1,–,"inconclusive: 18.5 µM [inhibitor, single point]"
COc1ccc(-c2nn(CC(=O)NCCc3ccccc3)c(=S)n2C)cc1,–,"inconclusive: 8.28 µM [inhibitor, partial curve]"
CC(=O)Nc1ccc(NC(=O)c2ccc(Cl)nc2)cc1,inactive: -0.637%,–
Cc1ccc(-c2noc(COc3ccc4c(c3)OCO4)n2)cc1,inactive: 25.2%,–
O=C1c2cccc3cccc(c23)C(=O)N1c1ccccc1Cl,inactive: 9.68%,–
COc1ccc(N(C)S(=O)(=O)c2ccc3c(c2)CC(C)N3C(=O)C2CC2)c(OC)c1 (configuration not stated),inactive: 11.3%,–
CN(C)c1c(F)cc(C(=O)NCc2ccccc2)cc1F,inactive: 42.1%,–
O=C(c1ccc(C(F)(F)F)cc1)C1CCCN(C(=O)CCn2cncn2)C1 (configuration not stated),–,"inconclusive: 14.7 µM [inhibitor, single point]"
CC(Sc1nnc(COc2ccc([N+](=O)[O-])cc2)n1C)C(=O)O (configuration not stated),inactive: -20%,–
O=C(CCN1C(=O)S/C(=C/c2ccccc2)C1=O)Nc1ccc(O)c(C(=O)O)c1,–,"inconclusive: 18.5 µM [inhibitor, single point]"
CC(=O)Nc1cccc(C(=O)/C=C/c2ccc(F)cc2)c1,–,"inconclusive: 1.17 µM [inhibitor, single point]"
COc1ccc(CCNCc2c(OC)ccc3ccccc23)cc1,–,"inconclusive: 13.1 µM [inhibitor, single point]"
N#CCC(=O)NC(=O)NCC1CC1,–,"inconclusive: 18.5 µM [inhibitor, single point]"
COc1ccc(N2C(=O)CC(N3CCN(c4ccc(Cl)cc4)CC3)C2=O)cc1 (configuration not stated),inactive: 0%,–
O=C(CN1CCN(c2ccccc2O)CC1)NC(=O)NCc1ccccc1,–,"inconclusive: 18.5 µM [inhibitor, single point]"
CCN(CC)CCNC(=O)CNC(=O)c1nn(-c2ccc(OC)c(OC)c2)c(=O)c2ccccc12,–,"inconclusive: 9.28 µM [inhibitor, partial curve, poor fit]"
Cc1ccc(NC(=O)C2COc3ccccc3O2)nc1 (configuration not stated),–,"inconclusive: 18.5 µM [inhibitor, single point]"
COc1cccc(C(=O)N2CCCN(C)CC2)c1OC,–,"inconclusive: 13.1 µM [inhibitor, single point]"
Cn1c(NNC(=O)C(c2ccccc2)c2ccccc2)cc(=O)n(C)c1=O,inactive: 4.8%,–
c1ccc(-c2cc(-c3ccccc3)n3ncnc3n2)cc1,–,"inconclusive: 11.7 µM [inhibitor, single point]"
COCC(=O)Nc1nc2n(n1)C(c1ccc(OC)cc1)CC(c1ccc(OC)cc1)N2 (configuration not stated),–,"inconclusive: 10.4 µM [inhibitor, single point]"
CCOC(=O)c1cc(-c2ccccc2)sc1NC(=O)C(C)(C)C,–,"inconclusive: 0.0828 µM [inhibitor, full curve, poor fit]"
O=C(Nc1sc2c(c1C(=O)c1ccc(Cl)cc1)CCCC2)c1cccnc1,–,"inconclusive: 18.5 µM [inhibitor, single point]"
O=C(COC(=O)c1cc(S(=O)(=O)N2CCCCC2)ccc1N1CCOCC1)c1ccccc1,–,"inconclusive: 1.85 µM [inhibitor, full curve]"
NC(=O)C1CCCCc2c1[nH]c1ccc(Cl)cc21 (configuration not stated),inactive: 20.4%,–

SMILES,"activity change, negative = inhibition",Potency
CC(C)n1cnc2c(NCc3ccccc3)nc(NCc3ccccc3)nc21,–,active: 9.28 µM
Cc1cc2c(cc1C)-c1c(ssc1=Nc1ccc(S(N)(=O)=O)cc1)C(C)(C)N2,inactive: -27.3%,–
CN(CC(=O)Nc1ccccc1N1CCCC1)S(=O)(=O)c1ccc(F)cc1,–,"inconclusive: 18.5 µM [inhibitor, single point]"
Cc1ccc(OCc2ccc(C(=O)Nc3ccc(C(N)=O)cc3)o2)c([N+](=O)[O-])c1,–,"inconclusive: 0.0029 µM [inhibitor, full curve, poor fit]"
COC(=O)c1cc(C)sc1NC(=O)CCCC(=O)O,–,active: 9.28 µM
CCn1nc(C)c(CNC(=O)c2cc(COc3ccc(F)cc3Cl)on2)c1C,inactive: -20.1%,–
COc1ccc(C(=O)Nc2ccc(Nc3ccccc3)cc2)cc1OC,–,"inconclusive: 10.4 µM [inhibitor, partial curve]"
Cc1cccc(C)c1NC(=O)CSc1nc2ccccc2c(=O)[nH]1,–,active: 0.415 µM
CCOC(=O)/C(=C/c1ccc(OC(=O)c2ccccc2)cc1)C(C)=O,inactive: -11.4%,–
CCNC(=O)NC(=O)C(C)OC(=O)CCCc1nc2ccccc2s1 (configuration not stated),inactive: 7.14%,–
CCN(CC(=O)Nc1ccc(NC(C)=O)cc1)C(=O)/C=C/c1ccc([N+](=O)[O-])cc1,inactive: 17.3%,–
CCC(C)NS(=O)(=O)c1ccc(OCC(=O)Nc2ccc3c(c2)OCCO3)cc1 (configuration not stated),–,"inconclusive: 9.28 µM [inhibitor, partial curve, poor fit]"
CCN(C(=O)CN1C(=O)S/C(=C\c2cccc(Cl)c2)C1=O)C1CCS(=O)(=O)C1 (configuration not stated),–,active: 11.7 µM
CC(OC(=O)c1ccc(S(=O)(=O)NCc2ccco2)cc1)C(=O)Nc1ncc(Cl)cc1Cl (configuration not stated),inactive: 24.4%,–
COc1ccc(NC(=O)c2ocnc2C)cc1OC,inactive: 39.9%,–
O=C1COc2ccc(S(=O)(=O)Nc3ccc(F)cc3)cc2N1,–,"inconclusive: 5.86 µM [inhibitor, partial curve]"
O=C(CN1CCc2ccccc2C1)Nc1cc(S(=O)(=O)N2CCOCC2)ccc1N1CCOCC1,–,active: 13.1 µM
Cc1noc(C)c1C(=O)Nc1ccccc1N1CCOCC1,inactive: -7.88%,–
Cc1cccc(OCCCC(=O)Nc2ccc(N(C)C)cc2)c1,inactive: -17.3%,–
Cc1ccccc1CN1CCNC(=O)C1CC(=O)N(C)CCC1CCOCC1 (configuration not stated),–,"inconclusive: 9.28 µM [inhibitor, partial curve]"
O=c1[nH]c(=O)n(-c2cccc3ccccc23)c(O)c1/C=N/N1CCCCCC1,inactive: 9.16%,–
Cc1cc(=O)oc(C)c1C(=O)NCCCN1CCN(c2ccc(F)cc2)CC1,–,active: 0.738 µM
COc1ccc(C(=O)OCC(=O)NC2CCCCCC2)cc1OC,–,"inconclusive: 4.65 µM [inhibitor, partial curve, poor fit]"
Cc1csc(Nc2ccccc2)[n+]1-c1ccccc1,–,"inconclusive: 0.147 µM [inhibitor, full curve, poor fit]"
Oc1c(C(c2cccc(F)c2)N2CCN(Cc3ccccc3)CC2)sc2ncnn12 (configuration not stated),–,"inconclusive: 18.5 µM [inhibitor, single point]"
CCOc1ccccc1NC(=O)Nc1cccc(NC(C)=O)c1,–,"inconclusive: 13.1 µM [inhibitor, partial curve, poor fit]"

SMILES,"activity change, negative = inhibition",Potency
O=c1c2cc([N+](=O)[O-])cc([N+](=O)[O-])c2[nH]n1-c1ccccc1,–,"inconclusive: 16.5 µM [inhibitor, partial curve, poor fit]"
O=c1cc(O)n(-c2ccccc2)c(=S)[nH]1,–,"inconclusive: 10.4 µM [inhibitor, single point]"
COc1ccc(NC(=O)c2nc(C)n(-c3ccc([N+](=O)[O-])cc3)n2)cc1,–,"inconclusive: 2.33 µM [inhibitor, partial curve, poor fit]"
COc1cc(CNc2ncc(-c3ccc(Br)cc3)n2C)cc(OC)c1O,–,"inconclusive: 16.5 µM [inhibitor, single point]"
Cc1ccc(NC(=O)CC2SCCNC2=O)cc1Cl (configuration not stated),inactive: -11.6%,–
CC(=O)Nc1nnc(SCC(=O)N2CCN(Cc3ccccc3)CC2)s1,–,"inconclusive: 18.5 µM [inhibitor, single point]"
COc1ccc(CC(=O)c2ccccc2C(=O)O)cc1,inactive: -9.79%,–
CCOc1ccc(S(=O)(=O)NCCC(=O)NCCOc2ccccc2OC)cc1,inactive: -12.8%,–
CN(CC(=O)Nc1ccc(F)c(F)c1F)C(=O)c1ccc(=O)[nH]c1,inactive: 191%,–
CCO[C@@H]1OC(C(=O)NCc2ccccc2)=C[C@H](C(C)(C)C)[C@H]1CCCO,–,"inconclusive: 9.28 µM [inhibitor, single point]"
O=[N+]([O-])O[C@H]1CO[C@H]2[C@@H]1OC[C@H]2O,inactive: 0.946%,–
COc1ccc(C(C)=O)cc1COC(=O)CCCN1C(=O)c2ccccc2C1=O,inactive: 13.6%,–
Cc1ccc(C(NC(=O)N2CCOCC2)C(Cl)(Cl)Cl)cc1F (configuration not stated),–,"inconclusive: 18.5 µM [inhibitor, single point]"
OCCC1CN(Cc2nc(-c3ccccc3)cs2)CCN1C1CCCC1 (configuration not stated),inactive: -16%,–
CNC(=S)N/N=C(\C)c1ccc2c(c1)OCO2,–,"inconclusive: 11.7 µM [inhibitor, single point]"
CCOc1ccc(Cc2n[nH]c(=S)n2N)cc1,inactive: 36.3%,–
CC1(C)CC(C(CC(=O)Nc2nccs2)c2ccccc2)CCO1 (configuration not stated),–,"inconclusive: 2.08 µM [inhibitor, full curve]"
CCN(CC)C(=O)Nc1cnc2ccccc2c1,–,active: 2.33 µM
c1ccc(N2CCN(c3c4c(nc5ncnn35)CCC4)CC2)cc1,–,"inconclusive: 14.7 µM [inhibitor, partial curve, poor fit]"
COc1ccccc1-c1nnc(SCC(=O)N2CCC(C)CC2)o1,–,"inconclusive: 18.5 µM [inhibitor, single point]"
COC(=O)c1c(C(=O)OC)c(-c2cccc(Cl)c2)n2c1CS(=O)(=O)C2,inactive: -18.7%,–
c1ccc(Sc2ncccn2)nc1,inactive: 32%,–
CCC(=O)NNc1ncnc2c1cnn2-c1ccccc1,–,"inconclusive: 18.5 µM [inhibitor, single point]"
Cc1ccc(C(=O)N2CCCC(Nc3ccc(F)c(F)c3)C2)cn1 (configuration not stated),–,active: 11.7 µM
Cn1c(=O)oc2cc(S(=O)(=O)N3CCC(C(=O)N4CCN(c5ccccc5)CC4)CC3)ccc21,–,"inconclusive: 0.0117 µM [inhibitor, full curve, poor fit]"

# 15 entries from above, with bars between the fields:
SMILES | activity change, negative = inhibition | Potency
COc1ccc(NC(=O)c2nc(C)n(-c3ccc([N+](=O)[O-])cc3)n2)cc1 | – | inconclusive: 2.33 µM [inhibitor, partial curve, poor fit]
COc1cc(CNc2ncc(-c3ccc(Br)cc3)n2C)cc(OC)c1O | – | inconclusive: 16.5 µM [inhibitor, single point]
Cc1ccc(NC(=O)CC2SCCNC2=O)cc1Cl (configuration not stated) | inactive: -11.6% | –
CC(=O)Nc1nnc(SCC(=O)N2CCN(Cc3ccccc3)CC2)s1 | – | inconclusive: 18.5 µM [inhibitor, single point]
COc1ccc(CC(=O)c2ccccc2C(=O)O)cc1 | inactive: -9.79% | –
CCOc1ccc(S(=O)(=O)NCCC(=O)NCCOc2ccccc2OC)cc1 | inactive: -12.8% | –
CN(CC(=O)Nc1ccc(F)c(F)c1F)C(=O)c1ccc(=O)[nH]c1 | inactive: 191% | –
CCO[C@@H]1OC(C(=O)NCc2ccccc2)=C[C@H](C(C)(C)C)[C@H]1CCCO | – | inconclusive: 9.28 µM [inhibitor, single point]
O=[N+]([O-])O[C@H]1CO[C@H]2[C@@H]1OC[C@H]2O | inactive: 0.946% | –
COc1ccc(C(C)=O)cc1COC(=O)CCCN1C(=O)c2ccccc2C1=O | inactive: 13.6% | –
Cc1ccc(C(NC(=O)N2CCOCC2)C(Cl)(Cl)Cl)cc1F (configuration not stated) | – | inconclusive: 18.5 µM [inhibitor, single point]
OCCC1CN(Cc2nc(-c3ccccc3)cs2)CCN1C1CCCC1 (configuration not stated) | inactive: -16% | –
CNC(=S)N/N=C(\C)c1ccc2c(c1)OCO2 | – | inconclusive: 11.7 µM [inhibitor, single point]
CCOc1ccc(Cc2n[nH]c(=S)n2N)cc1 | inactive: 36.3% | –
CC1(C)CC(C(CC(=O)Nc2nccs2)c2ccccc2)CCO1 (configuration not stated) | – | inconclusive: 2.08 µM [inhibitor, full curve]
